Laboratory results reported in patent US12397037B2, “Methods and compositions for immunomodulation” (CHILDREN'S MEDICAL CENTER CORPORATION, priority 2014, dated 2025).
At least one compound was matched to its structure with a doubt left.

Columns and labels:
[1] = test system: U87MG cells; assay: F-actin stress fiber staining (phalloidin) in U87MG cells; format: cell-based, human; settings: SEMA3F 640 ng/ml, rapamycin 10 nM or Torin 1 10 nM, 30 minutes, vs untreated
Method: FIG. 30A depicts U87MG cells treated with SEMA3F (640 ng/ml), rapamycin (10 nM) or Torin 1 (10 nM) for 30 minutes. Subsequently, cells were stained with Alexa Fluor 488 phalloidin and Hoechst 33342 to identify F-actin cytoskeleton stress fibers and cellular nuclei, respectively. […] The scale bar indicates 20 μm. FIG. 30B depicts U87MG cells transiently transfected with a pcDNA3.1 empty vector or with a wild type (WT) mTOR plasmid and after 18 hours treated with SEMA3F (640 ng/ml) for 30 minutes. Cells were stained as described above in FIG. 30A. Representative cellular staining is shown; bar graph represents the number of fibers/cell (mean±SD) from 3 independent experiments. FIG. 30C depicts U87MG cells transfected with control siRNA or with raptor- or rictor-specific siRNAs (20 nM). […] The number of stress fibers was evaluated in 3 independent experiments and shown as the mean±SD. […] After 18 hours, the cells were treated with SEMA3F (640 ng/ml) for 10 minutes and RhoA activity was evaluated. FIG. 30E depicts U87MG cells transfected with control siRNA or with raptor- or rictor-specific siRNAs (20 nM), were treated with SEMA3F (640 ng/ml) for 10 minutes and RhoA activity was analyzed. […]
mTORC2 links SEMA3F biology with the F-actin cytoskeleton. It was next determined whether the inhibition of mTORC2 serves as an intermediary response to link SEMA3F activity with cytoskeletal collapse. […]

[2] = test system: VEGF; assay: VEGF protein in conditioned media by ELISA, U87MG cells; format: cell-based, human

CO[C@H]1C[C@@H]2CC[C@@H](C)[C@@](O)(O2)C(=O)C(=O)N2CCCC[C@H]2C(=O)O[C@H]([C@H](C)C[C@@H]2CC[C@@H](O)[C@H](OC)C2)CC(=O)[C@H](C)/C=C(\C)[C@@H](O)[C@@H](OC)C(=O)[C@H](C)C[C@H](C)/C=C/C=C/C=C/1C [rapamycin, reference compound]
stress fiber formation and cytoskeletal arrangement [1]: failed to elicit any cytoskeletal changes
VEGF production, concomitant rapamycin and SEMA3F ([2]; DFO, vs single agents): failed to further suppress VEGF production
DFO-induced VEGF protein secretion ([2]; SEMA3F, rapamycin 10 nM or Torin 1 10 nM, 30 minutes prior to DFO, supernatants after 18 hours): significantly reduced
